PubChem BioAssay AID504764 | Drosophila RNAi Screening Center | 2011

Test: 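Knock-downs that raise or lower a Notch target reporter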 (primary screen)
Cells: Drosophila Kc167 cells
Knock-down reagent: long dsRNA against Drosophila genes
Time to read-out: about 5 days (4 days dsRNA, then 24 h after transfection)
Challenge: transfection of constitutively active membrane-tethered Notch lacking the extracellular domain, read 24 h later
Measurement: 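Light from a Notch-responsive E(spl)m3 luciferase reporter under active Notch, with control-promoter and no-Notch reporter wells to normalise; raw counts from paired wells a and b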
Scale: induced reporter light, run 1, well a and induced reporter light, run 1, well b: higher = more light from the Notch target reporter with active Notch; control promoter light, run 1, well a and control promoter light, run 1, well b: higher = more light from the viral control promoter (cell number, transfection, viability); uninduced reporter light, run 1, well a: higher = more light from the Notch target reporter without active Notch
Rule for the call: 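Hit if the duplicate-averaged log2 ratio of induced to control-promoter light gives a plate-wise z beyond ±2, or induced to uninduced beyond ±1.8; weak-control or discordant-duplicate wells dropped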
Calls: active = modifier hit (raised or lowered Notch signal); inactive = not a hit
The deposit covers about 22,000 reagents; shown is a random part of those that have a named target and a result. Over the whole deposit, 403 (1.9%) were called active. 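Unnormalised raw counts per well; ratio z-scores behind the hit calls and whether each hit raises or lowers signal are not deposited.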 Not given: the amount of reagent.

{"target":"Gbeta5 (G protein beta subunit 5)","dsRNA":"DRSC17754","induced reporter light, run 1, well a":1.24e5,"induced reporter light, run 1, well b":1.48e5,"control promoter light, run 1, well a":2.41e5,"control promoter light, run 1, well b":2.93e5,"uninduced reporter light, run 1, well a":11785,"outcome":"inactive"}
{"target":"CG18132","dsRNA":"DRSC00518","induced reporter light, run 1, well a":1.11e5,"induced reporter light, run 1, well b":1.20e5,"control promoter light, run 1, well a":1.13e5,"control promoter light, run 1, well b":72335,"uninduced reporter light, run 1, well a":10480,"outcome":"inactive"}
{"target":"milt (milton)","dsRNA":"DRSC00965","induced reporter light, run 1, well a":1.10e5,"induced reporter light, run 1, well b":79115,"control promoter light, run 1, well a":1.35e5,"control promoter light, run 1, well b":1.24e5,"uninduced reporter light, run 1, well a":7510,"outcome":"inactive"}
{"target":"milt (milton)","dsRNA":"DRSC00966","induced reporter light, run 1, well a":83670,"induced reporter light, run 1, well b":99645,"control promoter light, run 1, well a":1.16e5,"control promoter light, run 1, well b":1.26e5,"uninduced reporter light, run 1, well a":7640,"outcome":"inactive"}
{"target":"milt (milton)","dsRNA":"DRSC02281","induced reporter light, run 1, well a":1.46e5,"induced reporter light, run 1, well b":1.40e5,"control promoter light, run 1, well a":1.78e5,"control promoter light, run 1, well b":1.75e5,"uninduced reporter light, run 1, well a":11878,"outcome":"inactive"}
{"target":"CG17652","dsRNA":"DRSC00511","induced reporter light, run 1, well a":1.42e5,"induced reporter light, run 1, well b":1.11e5,"control promoter light, run 1, well a":1.25e5,"control promoter light, run 1, well b":99960,"uninduced reporter light, run 1, well a":9025,"outcome":"inactive"}
{"target":"CstF64 (Cleavage stimulation factor 64 kD subunit)","dsRNA":"DRSC16616","induced reporter light, run 1, well a":1.32e5,"induced reporter light, run 1, well b":1.61e5,"control promoter light, run 1, well a":1.40e5,"control promoter light, run 1, well b":1.53e5,"uninduced reporter light, run 1, well a":10085,"outcome":"inactive"}
{"target":"Alp6 (Alkaline phosphatase 6)","dsRNA":"DRSC06710","induced reporter light, run 1, well a":1.95e5,"induced reporter light, run 1, well b":1.45e5,"control promoter light, run 1, well a":1.70e5,"control promoter light, run 1, well b":1.81e5,"uninduced reporter light, run 1, well a":14795,"outcome":"inactive"}
{"target":"CG11438","dsRNA":"DRSC11660","induced reporter light, run 1, well a":1.30e5,"induced reporter light, run 1, well b":93020,"control promoter light, run 1, well a":1.16e5,"control promoter light, run 1, well b":98920,"uninduced reporter light, run 1, well a":7760,"outcome":"inactive"}
{"target":"mad2","dsRNA":"DRSC10274","induced reporter light, run 1, well a":2.25e5,"induced reporter light, run 1, well b":1.78e5,"control promoter light, run 1, well a":2.33e5,"control promoter light, run 1, well b":2.35e5,"uninduced reporter light, run 1, well a":10000,"outcome":"inactive"}
{"target":"Asap (ArfGAP with SH3 domain, ankyrin repeat and PH domain)","dsRNA":"DRSC06493","induced reporter light, run 1, well a":1.93e5,"induced reporter light, run 1, well b":1.65e5,"control promoter light, run 1, well a":2.24e5,"control promoter light, run 1, well b":1.69e5,"uninduced reporter light, run 1, well a":14278,"outcome":"inactive"}
{"target":"Asap (ArfGAP with SH3 domain, ankyrin repeat and PH domain)","dsRNA":"DRSC06830","induced reporter light, run 1, well a":1.76e5,"induced reporter light, run 1, well b":1.72e5,"control promoter light, run 1, well a":1.66e5,"control promoter light, run 1, well b":1.50e5,"uninduced reporter light, run 1, well a":14235,"outcome":"inactive"}

Not a retest: an excerpt of the list.
{"target":"Asap (ArfGAP with SH3 domain, ankyrin repeat and PH domain)","dsRNA":"DRSC06493","induced reporter light, run 1, well a":1.93e5,"induced reporter light, run 1, well b":1.65e5,"control promoter light, run 1, well a":2.24e5,"control promoter light, run 1, well b":1.69e5,"uninduced reporter light, run 1, well a":14278,"outcome":"inactive"}
{"target":"Asap (ArfGAP with SH3 domain, ankyrin repeat and PH domain)","dsRNA":"DRSC06830","induced reporter light, run 1, well a":1.76e5,"induced reporter light, run 1, well b":1.72e5,"control promoter light, run 1, well a":1.66e5,"control promoter light, run 1, well b":1.50e5,"uninduced reporter light, run 1, well a":14235,"outcome":"inactive"}
